This is one part of the list.
Legend:
Experiment in all cases: log2 fold change, soluble protein after heating vs DMSO (PISA); higher = thermal stabilisation; K562 lysate, 10 uM; active = over 0.2 and 3.5 SD of the protein, either way, in both replicates (recomputed)
alvocidib = compound: CN1CC[C@H](c2c(O)cc(O)c3c(=O)cc(-c4ccccc4Cl)oc23)[C@H](O)C1 [alvocidib]
Method in brief: (§1)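 Log-two fold change in thermal stability relative to solvent controls is reported from duplicates. For each sample, crude K562 extract from dounce-homogenised pellets in PBS pH 7.4 with 1 mM MgCl2, at 1 mg/mL protein, was treated with 10 μM compound for 30 min. Aliquots heated for 3 min across 48°C-58°C were pooled, brought to 0.5% NP-40 at 4°C and cleared at 21,000xg for 90 min. The supernatant was quantified by TMTpro 16plex LC-MS/MS with channel sums equalised.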

Protein sequences, listed by entry. Tags and fused reporters are not part of them. Lines headed by an entry give the natural chain unless they say otherwise; changes in a name come on top.
UniProt O00214: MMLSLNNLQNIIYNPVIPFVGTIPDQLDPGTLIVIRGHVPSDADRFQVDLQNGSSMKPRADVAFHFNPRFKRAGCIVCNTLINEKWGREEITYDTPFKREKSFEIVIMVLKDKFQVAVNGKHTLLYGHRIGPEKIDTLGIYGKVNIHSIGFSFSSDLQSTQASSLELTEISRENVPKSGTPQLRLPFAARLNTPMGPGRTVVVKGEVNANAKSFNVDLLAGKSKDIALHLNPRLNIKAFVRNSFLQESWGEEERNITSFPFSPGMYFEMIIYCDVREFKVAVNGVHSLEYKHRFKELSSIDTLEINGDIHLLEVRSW
UniProt P09960: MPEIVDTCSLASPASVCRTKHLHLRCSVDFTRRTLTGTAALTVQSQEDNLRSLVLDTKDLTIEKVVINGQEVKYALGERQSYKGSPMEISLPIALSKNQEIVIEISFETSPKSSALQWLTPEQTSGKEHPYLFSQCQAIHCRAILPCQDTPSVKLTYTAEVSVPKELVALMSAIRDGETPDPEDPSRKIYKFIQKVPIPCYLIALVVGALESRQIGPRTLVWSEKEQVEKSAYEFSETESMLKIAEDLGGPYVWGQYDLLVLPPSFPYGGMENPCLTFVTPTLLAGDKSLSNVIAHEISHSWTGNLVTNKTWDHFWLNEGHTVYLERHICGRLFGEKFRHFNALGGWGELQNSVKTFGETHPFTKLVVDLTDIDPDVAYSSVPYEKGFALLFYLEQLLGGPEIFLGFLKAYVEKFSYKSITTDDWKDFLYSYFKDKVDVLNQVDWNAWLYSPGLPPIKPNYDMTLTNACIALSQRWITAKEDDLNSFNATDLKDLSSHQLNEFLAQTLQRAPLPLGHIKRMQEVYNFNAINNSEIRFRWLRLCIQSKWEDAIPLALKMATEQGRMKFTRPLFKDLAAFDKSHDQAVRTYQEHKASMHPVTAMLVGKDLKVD
UniProt Q9UHB6: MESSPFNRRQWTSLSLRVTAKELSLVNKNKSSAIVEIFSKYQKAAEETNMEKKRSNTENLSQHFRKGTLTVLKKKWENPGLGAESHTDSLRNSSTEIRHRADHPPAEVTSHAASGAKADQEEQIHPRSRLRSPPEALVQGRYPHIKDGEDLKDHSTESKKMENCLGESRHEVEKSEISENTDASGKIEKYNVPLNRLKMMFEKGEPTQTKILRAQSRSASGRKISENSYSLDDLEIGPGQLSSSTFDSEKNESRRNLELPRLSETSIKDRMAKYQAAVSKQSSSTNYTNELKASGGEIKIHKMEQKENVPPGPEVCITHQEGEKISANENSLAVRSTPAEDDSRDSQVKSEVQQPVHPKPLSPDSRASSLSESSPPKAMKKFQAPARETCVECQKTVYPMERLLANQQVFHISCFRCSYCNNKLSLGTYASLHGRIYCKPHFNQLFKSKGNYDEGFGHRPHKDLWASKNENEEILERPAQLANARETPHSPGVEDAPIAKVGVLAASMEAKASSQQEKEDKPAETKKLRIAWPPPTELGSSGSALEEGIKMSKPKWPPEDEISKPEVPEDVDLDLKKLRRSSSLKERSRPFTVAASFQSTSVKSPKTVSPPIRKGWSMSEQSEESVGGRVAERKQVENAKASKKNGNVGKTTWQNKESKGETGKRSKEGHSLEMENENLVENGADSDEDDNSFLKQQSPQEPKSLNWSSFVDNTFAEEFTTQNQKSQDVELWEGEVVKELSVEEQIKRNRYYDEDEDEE
UniProt O60294: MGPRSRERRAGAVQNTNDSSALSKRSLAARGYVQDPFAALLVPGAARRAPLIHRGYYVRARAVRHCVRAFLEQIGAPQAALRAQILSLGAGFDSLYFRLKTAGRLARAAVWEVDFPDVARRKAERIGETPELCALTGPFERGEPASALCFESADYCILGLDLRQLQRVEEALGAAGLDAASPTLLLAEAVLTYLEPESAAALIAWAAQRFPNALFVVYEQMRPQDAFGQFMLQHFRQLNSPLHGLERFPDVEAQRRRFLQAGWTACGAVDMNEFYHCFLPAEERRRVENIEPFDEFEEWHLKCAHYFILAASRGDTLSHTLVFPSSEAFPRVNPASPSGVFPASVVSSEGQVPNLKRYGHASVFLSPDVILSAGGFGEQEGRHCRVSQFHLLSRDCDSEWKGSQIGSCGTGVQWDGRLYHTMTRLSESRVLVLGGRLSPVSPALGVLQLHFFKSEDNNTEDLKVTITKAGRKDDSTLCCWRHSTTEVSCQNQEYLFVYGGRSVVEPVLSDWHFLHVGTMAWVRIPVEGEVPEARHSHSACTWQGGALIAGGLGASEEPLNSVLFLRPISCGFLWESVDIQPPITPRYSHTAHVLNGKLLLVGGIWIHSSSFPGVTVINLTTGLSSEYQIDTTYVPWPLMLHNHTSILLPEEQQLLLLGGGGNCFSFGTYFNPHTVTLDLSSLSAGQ
UniProt Q8TDW0: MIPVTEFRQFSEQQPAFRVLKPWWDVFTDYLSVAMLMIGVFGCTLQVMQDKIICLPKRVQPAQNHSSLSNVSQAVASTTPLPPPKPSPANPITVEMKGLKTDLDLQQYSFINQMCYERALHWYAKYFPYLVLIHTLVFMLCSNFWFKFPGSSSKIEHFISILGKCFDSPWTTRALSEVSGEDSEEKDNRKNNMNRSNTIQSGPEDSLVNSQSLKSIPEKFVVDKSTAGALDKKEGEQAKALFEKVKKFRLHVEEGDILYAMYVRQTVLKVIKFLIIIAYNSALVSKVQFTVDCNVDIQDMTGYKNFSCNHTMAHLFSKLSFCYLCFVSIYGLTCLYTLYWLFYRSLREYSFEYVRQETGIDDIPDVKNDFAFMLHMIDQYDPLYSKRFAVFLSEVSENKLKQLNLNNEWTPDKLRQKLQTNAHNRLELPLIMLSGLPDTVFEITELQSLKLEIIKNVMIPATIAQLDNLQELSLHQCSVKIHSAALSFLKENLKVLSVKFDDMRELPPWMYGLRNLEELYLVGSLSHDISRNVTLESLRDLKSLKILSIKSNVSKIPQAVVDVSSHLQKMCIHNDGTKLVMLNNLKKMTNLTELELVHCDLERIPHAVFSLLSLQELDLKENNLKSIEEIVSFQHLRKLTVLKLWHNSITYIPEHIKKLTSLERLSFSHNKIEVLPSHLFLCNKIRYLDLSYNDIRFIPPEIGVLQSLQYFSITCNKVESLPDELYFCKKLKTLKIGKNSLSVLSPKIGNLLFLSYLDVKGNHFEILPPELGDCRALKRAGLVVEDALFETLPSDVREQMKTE
UniProt P25791: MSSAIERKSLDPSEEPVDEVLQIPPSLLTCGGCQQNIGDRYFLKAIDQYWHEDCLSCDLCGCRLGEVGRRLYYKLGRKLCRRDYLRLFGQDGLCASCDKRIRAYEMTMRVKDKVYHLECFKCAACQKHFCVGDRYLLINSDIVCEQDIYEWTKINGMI
UniProt Q6MZP7: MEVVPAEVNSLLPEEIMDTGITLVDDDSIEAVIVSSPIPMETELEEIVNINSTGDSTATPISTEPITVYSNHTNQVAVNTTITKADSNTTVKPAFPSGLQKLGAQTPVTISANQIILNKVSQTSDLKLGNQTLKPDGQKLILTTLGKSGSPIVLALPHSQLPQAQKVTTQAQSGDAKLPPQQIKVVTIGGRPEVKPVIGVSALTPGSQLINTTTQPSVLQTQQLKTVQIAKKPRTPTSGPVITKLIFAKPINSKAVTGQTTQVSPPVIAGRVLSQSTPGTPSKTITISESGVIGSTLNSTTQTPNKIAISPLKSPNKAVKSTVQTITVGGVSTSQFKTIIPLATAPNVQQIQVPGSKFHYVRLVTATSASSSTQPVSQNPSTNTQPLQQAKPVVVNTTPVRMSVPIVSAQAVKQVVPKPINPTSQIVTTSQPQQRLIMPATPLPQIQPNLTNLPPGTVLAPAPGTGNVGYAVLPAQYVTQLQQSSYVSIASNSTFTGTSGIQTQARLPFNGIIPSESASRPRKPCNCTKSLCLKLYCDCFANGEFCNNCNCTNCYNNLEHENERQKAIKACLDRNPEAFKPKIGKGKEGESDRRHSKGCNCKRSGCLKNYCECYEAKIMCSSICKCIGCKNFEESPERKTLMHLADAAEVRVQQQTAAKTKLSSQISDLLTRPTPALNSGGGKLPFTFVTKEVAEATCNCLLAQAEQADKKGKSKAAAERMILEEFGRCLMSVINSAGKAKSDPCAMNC
UniProt Q3MHD2: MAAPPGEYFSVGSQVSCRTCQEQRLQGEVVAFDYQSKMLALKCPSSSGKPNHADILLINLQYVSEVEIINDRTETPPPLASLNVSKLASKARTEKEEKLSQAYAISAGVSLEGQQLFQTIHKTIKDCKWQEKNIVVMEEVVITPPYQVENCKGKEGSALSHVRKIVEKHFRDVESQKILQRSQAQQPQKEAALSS
UniProt Q9H6V9: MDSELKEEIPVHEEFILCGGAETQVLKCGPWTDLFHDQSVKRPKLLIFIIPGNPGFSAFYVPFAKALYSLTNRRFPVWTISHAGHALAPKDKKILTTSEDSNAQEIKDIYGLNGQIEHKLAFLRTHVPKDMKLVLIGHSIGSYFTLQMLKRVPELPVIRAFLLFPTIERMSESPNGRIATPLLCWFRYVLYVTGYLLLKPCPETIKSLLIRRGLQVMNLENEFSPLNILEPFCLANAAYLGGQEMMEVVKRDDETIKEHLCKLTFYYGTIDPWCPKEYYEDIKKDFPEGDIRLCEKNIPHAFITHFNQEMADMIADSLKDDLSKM
UniProt P49916: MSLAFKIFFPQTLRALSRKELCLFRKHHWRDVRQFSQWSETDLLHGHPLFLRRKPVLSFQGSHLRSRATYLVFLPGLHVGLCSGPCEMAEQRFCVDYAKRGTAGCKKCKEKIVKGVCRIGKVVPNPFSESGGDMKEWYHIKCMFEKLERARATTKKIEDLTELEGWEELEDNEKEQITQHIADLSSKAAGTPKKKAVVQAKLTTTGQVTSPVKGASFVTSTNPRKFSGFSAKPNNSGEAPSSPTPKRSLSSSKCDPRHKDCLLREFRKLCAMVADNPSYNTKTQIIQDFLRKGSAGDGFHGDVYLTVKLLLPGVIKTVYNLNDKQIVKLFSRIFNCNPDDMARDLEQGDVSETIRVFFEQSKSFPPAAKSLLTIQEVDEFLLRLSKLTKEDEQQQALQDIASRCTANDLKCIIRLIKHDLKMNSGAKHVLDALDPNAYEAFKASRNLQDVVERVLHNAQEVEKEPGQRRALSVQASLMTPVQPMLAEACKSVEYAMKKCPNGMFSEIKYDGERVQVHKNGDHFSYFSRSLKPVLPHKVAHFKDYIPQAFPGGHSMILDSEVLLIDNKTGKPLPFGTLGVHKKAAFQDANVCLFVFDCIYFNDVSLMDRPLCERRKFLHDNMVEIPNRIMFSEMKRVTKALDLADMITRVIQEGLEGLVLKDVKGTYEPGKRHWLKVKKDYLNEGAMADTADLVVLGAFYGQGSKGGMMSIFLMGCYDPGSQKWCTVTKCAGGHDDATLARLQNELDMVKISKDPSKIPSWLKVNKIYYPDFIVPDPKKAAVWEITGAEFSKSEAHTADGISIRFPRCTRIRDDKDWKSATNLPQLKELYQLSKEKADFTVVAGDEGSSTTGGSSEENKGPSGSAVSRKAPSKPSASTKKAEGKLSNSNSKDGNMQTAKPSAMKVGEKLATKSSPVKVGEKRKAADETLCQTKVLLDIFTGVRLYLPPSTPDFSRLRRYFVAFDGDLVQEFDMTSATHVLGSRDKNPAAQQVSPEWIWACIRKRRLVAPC
UniProt Q5TKA1: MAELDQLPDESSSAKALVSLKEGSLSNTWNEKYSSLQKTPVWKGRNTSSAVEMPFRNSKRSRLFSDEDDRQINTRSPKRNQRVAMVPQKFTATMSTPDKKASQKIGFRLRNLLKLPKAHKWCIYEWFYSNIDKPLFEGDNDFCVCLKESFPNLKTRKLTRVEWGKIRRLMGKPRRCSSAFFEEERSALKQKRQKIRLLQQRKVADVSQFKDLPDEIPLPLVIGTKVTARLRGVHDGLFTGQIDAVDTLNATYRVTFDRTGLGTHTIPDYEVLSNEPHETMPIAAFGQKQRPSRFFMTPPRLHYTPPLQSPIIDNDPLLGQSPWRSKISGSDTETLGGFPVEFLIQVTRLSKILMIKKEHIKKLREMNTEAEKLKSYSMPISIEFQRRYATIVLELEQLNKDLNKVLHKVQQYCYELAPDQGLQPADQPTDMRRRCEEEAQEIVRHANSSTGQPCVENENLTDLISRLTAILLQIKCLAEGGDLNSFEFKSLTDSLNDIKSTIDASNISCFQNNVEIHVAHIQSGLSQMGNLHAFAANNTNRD
UniProt Q9C0E8: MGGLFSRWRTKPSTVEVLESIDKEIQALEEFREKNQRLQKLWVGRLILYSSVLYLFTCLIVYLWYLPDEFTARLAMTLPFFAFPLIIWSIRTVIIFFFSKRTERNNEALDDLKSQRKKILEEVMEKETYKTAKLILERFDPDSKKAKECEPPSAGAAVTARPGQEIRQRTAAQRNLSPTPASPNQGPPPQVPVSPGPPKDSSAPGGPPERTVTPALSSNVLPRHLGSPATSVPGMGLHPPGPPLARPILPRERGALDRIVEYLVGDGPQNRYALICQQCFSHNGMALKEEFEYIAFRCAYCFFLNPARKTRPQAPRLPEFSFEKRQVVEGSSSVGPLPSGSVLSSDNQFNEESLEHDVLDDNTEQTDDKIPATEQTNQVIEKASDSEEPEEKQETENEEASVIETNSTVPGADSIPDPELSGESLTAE

Tubastatin A = compound: CN1CCc2c(c3ccccc3n2Cc2ccc(C(=O)NO)cc2)C1 [Tubastatin A]
Method in brief: as §1

[1] = compound: CNC(=O)C1=CC=CC=C1NC2=NC(=NC=C2Cl)NC3=C(C=C(C=C3)N4CCOCC4)OC
Method in brief: as §1

defactinib = compound: CNC(=O)c1ccc(Nc2ncc(C(F)(F)F)c(NCc3nccnc3N(C)S(C)(=O)=O)n2)cc1 [defactinib]
Method in brief: as §1

[2] = compound: CNc1nc(-c2ccc3c(N)n[nH]c3c2)cc(N2C[C@@H](C(=O)NC3CCCCC3)CC[C@H]2C)n1
Method in brief: as §1

encorafenib = compound: COC(=O)N[C@@H](C)CNc1nccc(-c2cn(C(C)C)nc2-c2cc(Cl)cc(NS(C)(=O)=O)c2F)n1 [encorafenib]
Method in brief: as §1

[3] = compound: COC(=O)[C@H](CCSC)NC(=O)C1=C(C=C(C=C1)NC[C@H](CS)N)C2=CC=CC=C2
Method in brief: as §1

alisertib = compound: COc1cc(Nc2ncc3c(n2)-c2ccc(Cl)cc2C(c2c(F)cccc2OC)=NC3)ccc1C(=O)O [alisertib]
Method in brief: as §1

[4] = compound: COc1cc2nc(-c3cc(F)ccc3O)nc(N[C@@H]3CNC[C@H]3C(C)(C)O)c2cc1OC
Method in brief: as §1

gefitinib = compound: COc1cc2ncnc(Nc3ccc(F)c(Cl)c3)c2cc1OCCCN1CCOCC1 [gefitinib]
Method in brief: as §1

lapatinib = compound: CS(=O)(=O)CCNCc1ccc(-c2ccc3ncnc(Nc4ccc(OCc5cccc(F)c5)c(Cl)c4)c3c2)o1 [lapatinib]
Method in brief: as §1

pictilisib = compound: CS(=O)(=O)N1CCN(Cc2cc3nc(-c4cccc5[nH]ncc45)nc(N4CCOCC4)c3s2)CC1 [pictilisib]
Method in brief: as §1

crizotinib = compound: C[C@@H](Oc1cc(-c2cnn(C3CCNCC3)c2)cnc1N)c1c(Cl)ccc(F)c1Cl [crizotinib]
Method in brief: as §1

[5] = compound: C[C@H](C1=CC=C(C=C1)C(=O)NC2=C3C=CNC3=NC=C2)N
Method in brief: as §1

duvelisib = compound: C[C@H](Nc1ncnc2nc[nH]c12)c1cc2cccc(Cl)c2c(=O)n1-c1ccccc1 [duvelisib]
Method in brief: as §1

gandotinib = compound: Cc1cc(Nc2cc(CN3CCOCC3)c3nc(C)c(Cc4ccc(Cl)cc4F)n3n2)n[nH]1 [gandotinib]
Method in brief: as §1

tozasertib = compound: Cc1cc(Nc2cc(N3CCN(C)CC3)nc(Sc3ccc(NC(=O)C4CC4)cc3)n2)n[nH]1 [tozasertib]
Method in brief: as §1

doramapimod = compound: Cc1ccc(-n2nc(C(C)(C)C)cc2NC(=O)Nc2ccc(OCCN3CCOCC3)c3ccccc23)cc1 [doramapimod]
Method in brief: as §1

bafetinib = compound: Cc1ccc(NC(=O)c2ccc(CN3CC[C@H](N(C)C)C3)c(C(F)(F)F)c2)cc1Nc1nccc(-c2cncnc2)n1 [bafetinib]
Method in brief: as §1

[6] = compound: Cc1cccc(CC(=O)N2CCc3c2ccc(-c2cn(C)c4ncnc(N)c24)c3F)n1
Method in brief: as §1

Measured: log2 fold change

LGALS8 isoform 2 (UniProt O00214)
inactive: alvocidib 0.005 | Tubastatin A 0.029 | [1] 0.013 | defactinib -0.018 | [2] -0.039 | encorafenib 0.046 | [3] -0.037 | alisertib -0.009 | [4] 0.051 | gefitinib -0.015 | lapatinib 0.01 | pictilisib 0.137 | crizotinib -0.033 | [5] -0.017 | duvelisib -0.013 | gandotinib -0.025 | tozasertib 0 | doramapimod -0.001 | bafetinib -0.019 | [6] -0.004

LTA4H (UniProt P09960)
inactive: alvocidib 0.026 | Tubastatin A 0.01 | [1] 0.005 | defactinib -0.032 | [2] 0 | encorafenib -0.008 | [3] -0.041 | alisertib -0.001 | [4] 0.008 | gefitinib -0.005 | lapatinib -0.008 | pictilisib -0.003 | crizotinib 0.028 | [5] -0.006 | duvelisib 0.017 | gandotinib 0.028 | tozasertib 0.009 | doramapimod -0.004 | bafetinib 0.213 | [6] -0.026

LIMA1 isoform 4 (UniProt Q9UHB6)
inactive: alvocidib 0.011 | Tubastatin A 0.008 | [1] -0.045 | defactinib -0.001 | [2] 0.027 | encorafenib -0.007 | [3] 0.012 | alisertib -0.005 | [4] -0.003 | gefitinib -0.043 | lapatinib -0.024 | pictilisib -0.006 | crizotinib 0.02 | [5] 0.029 | duvelisib 0.009 | gandotinib -0.02 | tozasertib -0.037 | doramapimod -0.031 | bafetinib -0.031 | [6] -0.045

LSG1 (UniProt Q9H089)
inactive: alvocidib -0.079 | Tubastatin A -0.016 | [1] -0.046 | defactinib 0.003 | [2] -0.077 | encorafenib 0.046 | alisertib -0.017 | [4] -0.028 | gefitinib -0.059 | lapatinib -0.002 | pictilisib -0.044 | crizotinib -0.191 | [5] -0.099 | duvelisib -0.075 | gandotinib 0.037 | tozasertib -0.03 | doramapimod 0.085 | bafetinib -0.077 | [6] 0.072
active: [3] 0.303

LCMT2 (UniProt O60294)
inactive: alvocidib 0.033 | Tubastatin A 0.098 | [1] -0.02 | defactinib -0.102 | [2] -0.029 | encorafenib 0.039 | [3] -0.041 | alisertib -0.041 | [4] -0.022 | gefitinib -0.069 | lapatinib 0.052 | pictilisib -0.042 | crizotinib -0.149 | [5] -0.006 | duvelisib 0 | gandotinib 0.017 | tozasertib 0.034 | doramapimod -0.133 | bafetinib -0.121 | [6] -0.045

3 successive records from above, for reference:
LTA4H (UniProt P09960)
inactive: alvocidib 0.026 | Tubastatin A 0.01 | [1] 0.005 | defactinib -0.032 | [2] 0 | encorafenib -0.008 | [3] -0.041 | alisertib -0.001 | [4] 0.008 | gefitinib -0.005 | lapatinib -0.008 | pictilisib -0.003 | crizotinib 0.028 | [5] -0.006 | duvelisib 0.017 | gandotinib 0.028 | tozasertib 0.009 | doramapimod -0.004 | bafetinib 0.213 | [6] -0.026

LIMA1 isoform 4 (UniProt Q9UHB6)
inactive: alvocidib 0.011 | Tubastatin A 0.008 | [1] -0.045 | defactinib -0.001 | [2] 0.027 | encorafenib -0.007 | [3] 0.012 | alisertib -0.005 | [4] -0.003 | gefitinib -0.043 | lapatinib -0.024 | pictilisib -0.006 | crizotinib 0.02 | [5] 0.029 | duvelisib 0.009 | gandotinib -0.02 | tozasertib -0.037 | doramapimod -0.031 | bafetinib -0.031 | [6] -0.045

LSG1 (UniProt Q9H089)
inactive: alvocidib -0.079 | Tubastatin A -0.016 | [1] -0.046 | defactinib 0.003 | [2] -0.077 | encorafenib 0.046 | alisertib -0.017 | [4] -0.028 | gefitinib -0.059 | lapatinib -0.002 | pictilisib -0.044 | crizotinib -0.191 | [5] -0.099 | duvelisib -0.075 | gandotinib 0.037 | tozasertib -0.03 | doramapimod 0.085 | bafetinib -0.077 | [6] 0.072
active: [3] 0.303

Next part

LRRC8C (UniProt Q8TDW0)
inactive: alvocidib 0.045 | Tubastatin A 0.013 | [1] -0.011 | defactinib -0.019 | [2] -0.048 | encorafenib 0.041 | [3] 0.003 | alisertib 0.121 | [4] 0.029 | gefitinib -0.135 | lapatinib 0.114 | pictilisib -0.041 | crizotinib 0.018 | [5] -0.027 | duvelisib 0.133 | gandotinib -0.022 | tozasertib -0.051 | doramapimod -0.001 | bafetinib -0.207 | [6] -0.002

LIN7C (UniProt Q9NUP9)
inactive: alvocidib 0.039 | Tubastatin A 0.004 | [1] 0.1 | defactinib -0.014 | [2] -0.027 | encorafenib -0.018 | [3] -0.043 | alisertib 0.002 | [4] 0.003 | gefitinib 0.009 | lapatinib -0.01 | pictilisib 0 | crizotinib 0.057 | [5] -0.012 | duvelisib 0 | gandotinib -0.013 | tozasertib 0.032 | doramapimod 0.029 | bafetinib -0.004 | [6] 0.006

LMO2 isoform 3 (UniProt P25791)
inactive: alvocidib 0.067 | Tubastatin A -0.029 | [1] 0.048 | defactinib 0.01 | [2] 0.066 | encorafenib -0.102 | [3] 0.22 | alisertib 0.016 | [4] -0.059 | gefitinib 0.012 | lapatinib -0.057 | pictilisib 0.085 | crizotinib 0.006 | [5] -0.166 | duvelisib -0.138 | gandotinib 0.109 | tozasertib 0.113 | doramapimod 0.044 | bafetinib -0.067 | [6] -0.063

LDB1 (UniProt Q86U70)
inactive: alvocidib -0.009 | Tubastatin A -0.002 | [1] 0.021 | defactinib -0.008 | [2] 0.03 | encorafenib -0.007 | [3] -0.131 | alisertib 0.044 | [4] -0.011 | gefitinib -0.018 | lapatinib -0.019 | pictilisib 0.02 | crizotinib 0.018 | [5] -0.039 | duvelisib 0.054 | gandotinib 0.066 | tozasertib -0.111 | doramapimod 0.021 | bafetinib -0.011 | [6] 0.044

LIN54 (UniProt Q6MZP7)
inactive: alvocidib -0.029 | Tubastatin A -0.014 | [1] 0 | defactinib -0.058 | [2] 0.025 | encorafenib -0.002 | [3] 0.052 | alisertib -0.029 | [4] 0.108 | gefitinib -0.102 | lapatinib -0.042 | pictilisib -0.056 | crizotinib -0.02 | [5] -0.029 | duvelisib 0.038 | gandotinib 0.011 | tozasertib 0.019 | doramapimod -0.033 | bafetinib -0.082 | [6] 0.085

LIG4 (UniProt P49917)
inactive: alvocidib 0.02 | Tubastatin A -0.025 | [1] -0.04 | defactinib 0.063 | [2] 0.005 | encorafenib 0.048 | alisertib -0.049 | [4] -0.096 | gefitinib -0.069 | lapatinib 0.028 | pictilisib -0.245 | crizotinib -0.035 | [5] -0.064 | duvelisib 0.022 | gandotinib -0.07 | tozasertib -0.034 | doramapimod -0.037 | bafetinib -0.167 | [6] 0.073
active: [3] 0.415

LSM12 (UniProt Q3MHD2)
inactive: alvocidib 0.031 | Tubastatin A 0.028 | [1] 0.001 | defactinib 0.073 | [2] 0.057 | encorafenib 0.02 | [3] -0.027 | alisertib -0.001 | [4] -0.019 | gefitinib 0.018 | lapatinib 0.021 | pictilisib -0.01 | crizotinib -0.003 | [5] 0.023 | duvelisib 0.023 | gandotinib 0.008 | tozasertib 0.015 | doramapimod -0.009 | bafetinib 0.044 | [6] -0.038

LDAH isoform 2 (UniProt Q9H6V9)
inactive: alvocidib 0.003 | Tubastatin A -0.124 | [1] -0.012 | defactinib 0.012 | [2] -0.027 | encorafenib -0.03 | [3] 0.048 | alisertib 0 | [4] -0.036 | gefitinib 0.004 | lapatinib 0.014 | pictilisib 0.006 | crizotinib -0.062 | [5] -0.016 | duvelisib 0.008 | gandotinib -0.036 | tozasertib 0.06 | doramapimod 0.021 | bafetinib -0.01 | [6] 0.143

LIG3 (UniProt P49916)
inactive: alvocidib -0.017 | Tubastatin A -0.142 | [1] 0.007 | defactinib 0.006 | [2] -0.002 | encorafenib 0.023 | [3] 0.121 | alisertib -0.009 | [4] -0.008 | gefitinib -0.015 | lapatinib -0.007 | pictilisib 0.006 | crizotinib -0.044 | [5] -0.008 | duvelisib 0.01 | gandotinib -0.05 | tozasertib -0.004 | doramapimod 0.016 | bafetinib -0.046 | [6] 0.016

LIN9 isoform 2 (UniProt Q5TKA1)
inactive: alvocidib 0.006 | Tubastatin A 0.027 | [1] 0.018 | defactinib -0.012 | [2] -0.036 | encorafenib 0.015 | [3] -0.075 | alisertib -0.048 | [4] 0.004 | gefitinib 0.016 | lapatinib 0.043 | pictilisib 0.064 | crizotinib -0.026 | [5] -0.004 | duvelisib -0.012 | gandotinib -0.086 | tozasertib 0.053 | doramapimod 0.014 | bafetinib -0.017 | [6] -0.015

LNPK (UniProt Q9C0E8)
inactive: alvocidib -0.061 | Tubastatin A 0.01 | [1] 0.007 | defactinib -0.011 | [2] -0.012 | encorafenib 0.017 | [3] -0.071 | alisertib -0.013 | [4] 0.011 | gefitinib 0.052 | lapatinib -0.033 | pictilisib 0.021 | crizotinib 0.005 | [5] -0.137 | duvelisib 0.061 | gandotinib 0.029 | tozasertib 0.013 | doramapimod -0.047 | bafetinib -0.024 | [6] 0.091

From the supplement of paper PMC10849652
